This is an account of results in patent publication US20060189539A1 (priority 1994, published 2006).

This data set in a line: general procedure: Boc solid-phase peptide synthesis; BHA resin; DIC/HOBt (carbodiimide); BOP reagent for bulky amino acids; symmetric anhydride. To be noted: whole synthesis; for crude purity (method not given): scale of the general procedure 0.5 mmol.

As for Lys^4[Lys(ε-Fmoc)]^8-GnRH-III, the “crude purity (method not given)” value stood at 80%. Consider Lys^5,D-Trp^6-hGnRH, for which the isolated mass (scale 0.5 mmol) is recorded as 52 mg. On to Lys^5[Lys(ε-Fmoc)]^8-GnRH-III, for which the “crude purity (method not given)” value is on record as “about 80%”.
